Experimental data as given in the supplement of paper PMC10849652.
The list shows a part of the results.

The chains behind the UniProt entries cited, without tags or fusion partners. Where a name states a change or a piece, a line headed by the entry shows the natural chain unless it says otherwise.
UniProt Q15700, whole entry, looked up: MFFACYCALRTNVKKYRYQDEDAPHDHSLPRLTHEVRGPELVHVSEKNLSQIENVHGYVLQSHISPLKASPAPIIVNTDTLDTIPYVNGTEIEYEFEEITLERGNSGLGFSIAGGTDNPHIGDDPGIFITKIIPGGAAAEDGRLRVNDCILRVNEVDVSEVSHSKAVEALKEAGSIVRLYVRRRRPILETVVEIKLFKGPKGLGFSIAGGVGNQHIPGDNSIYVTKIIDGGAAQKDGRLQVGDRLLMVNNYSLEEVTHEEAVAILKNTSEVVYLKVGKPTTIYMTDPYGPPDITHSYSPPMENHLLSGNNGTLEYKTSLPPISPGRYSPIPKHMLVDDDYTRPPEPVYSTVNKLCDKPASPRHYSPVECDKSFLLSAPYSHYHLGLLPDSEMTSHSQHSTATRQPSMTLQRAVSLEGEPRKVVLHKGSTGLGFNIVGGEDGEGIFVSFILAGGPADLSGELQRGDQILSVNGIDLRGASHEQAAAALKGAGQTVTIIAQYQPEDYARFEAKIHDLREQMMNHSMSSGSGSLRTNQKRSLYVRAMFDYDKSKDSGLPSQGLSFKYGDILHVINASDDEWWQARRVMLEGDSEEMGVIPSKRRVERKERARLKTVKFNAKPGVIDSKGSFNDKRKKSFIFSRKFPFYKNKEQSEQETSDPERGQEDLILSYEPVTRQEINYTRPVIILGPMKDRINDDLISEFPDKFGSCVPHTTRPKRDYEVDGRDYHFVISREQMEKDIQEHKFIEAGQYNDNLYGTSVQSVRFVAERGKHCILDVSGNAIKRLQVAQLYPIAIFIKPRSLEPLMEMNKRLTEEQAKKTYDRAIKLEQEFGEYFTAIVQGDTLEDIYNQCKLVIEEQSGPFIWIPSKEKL
UniProt P35659: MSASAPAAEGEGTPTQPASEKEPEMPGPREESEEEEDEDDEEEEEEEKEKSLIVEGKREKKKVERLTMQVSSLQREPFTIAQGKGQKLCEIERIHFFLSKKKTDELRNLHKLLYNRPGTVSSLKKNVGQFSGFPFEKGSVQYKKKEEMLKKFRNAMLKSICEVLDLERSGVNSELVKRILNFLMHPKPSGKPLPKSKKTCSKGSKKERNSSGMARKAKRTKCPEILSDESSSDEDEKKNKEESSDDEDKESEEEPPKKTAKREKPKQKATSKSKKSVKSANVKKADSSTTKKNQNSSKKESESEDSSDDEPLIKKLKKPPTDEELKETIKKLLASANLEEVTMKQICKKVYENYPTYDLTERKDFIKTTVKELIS
UniProt Q9NUU7: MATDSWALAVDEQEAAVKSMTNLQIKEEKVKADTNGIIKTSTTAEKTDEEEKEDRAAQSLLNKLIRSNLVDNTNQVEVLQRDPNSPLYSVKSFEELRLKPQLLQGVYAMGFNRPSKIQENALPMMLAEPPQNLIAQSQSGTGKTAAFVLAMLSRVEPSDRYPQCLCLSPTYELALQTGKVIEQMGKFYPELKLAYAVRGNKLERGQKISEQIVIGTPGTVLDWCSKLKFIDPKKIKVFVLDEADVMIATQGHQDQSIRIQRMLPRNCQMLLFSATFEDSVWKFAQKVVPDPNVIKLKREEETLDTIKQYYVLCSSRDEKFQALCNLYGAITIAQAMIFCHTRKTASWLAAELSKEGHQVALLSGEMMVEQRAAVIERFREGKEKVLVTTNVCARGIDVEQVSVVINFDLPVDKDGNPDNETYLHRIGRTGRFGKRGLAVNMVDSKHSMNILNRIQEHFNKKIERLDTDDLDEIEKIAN
UniProt Q9NR28: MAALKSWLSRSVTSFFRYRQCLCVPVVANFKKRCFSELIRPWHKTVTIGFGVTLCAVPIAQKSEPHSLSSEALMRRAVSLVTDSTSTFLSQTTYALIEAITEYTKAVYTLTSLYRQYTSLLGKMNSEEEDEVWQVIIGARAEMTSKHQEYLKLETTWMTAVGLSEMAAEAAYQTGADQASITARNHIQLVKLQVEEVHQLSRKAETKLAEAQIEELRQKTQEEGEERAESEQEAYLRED
UniProt Q7L7V1: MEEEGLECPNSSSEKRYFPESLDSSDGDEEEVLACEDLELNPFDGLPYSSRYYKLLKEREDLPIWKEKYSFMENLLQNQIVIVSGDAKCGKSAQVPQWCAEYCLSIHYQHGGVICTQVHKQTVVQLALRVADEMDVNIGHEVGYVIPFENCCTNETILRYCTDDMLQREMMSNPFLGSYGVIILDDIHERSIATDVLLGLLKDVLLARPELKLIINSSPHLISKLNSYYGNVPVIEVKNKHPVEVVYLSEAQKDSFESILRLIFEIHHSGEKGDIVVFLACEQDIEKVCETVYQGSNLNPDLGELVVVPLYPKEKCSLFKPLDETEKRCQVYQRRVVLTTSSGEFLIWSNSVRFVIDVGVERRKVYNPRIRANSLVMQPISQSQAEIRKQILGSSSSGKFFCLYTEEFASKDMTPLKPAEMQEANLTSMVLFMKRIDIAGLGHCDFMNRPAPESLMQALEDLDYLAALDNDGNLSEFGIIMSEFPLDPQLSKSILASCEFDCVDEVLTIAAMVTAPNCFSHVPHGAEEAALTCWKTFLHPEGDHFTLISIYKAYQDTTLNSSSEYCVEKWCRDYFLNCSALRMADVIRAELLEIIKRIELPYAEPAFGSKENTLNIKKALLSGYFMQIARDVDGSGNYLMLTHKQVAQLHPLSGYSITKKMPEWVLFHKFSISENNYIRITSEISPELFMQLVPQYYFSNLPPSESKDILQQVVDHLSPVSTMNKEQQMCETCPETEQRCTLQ
UniProt Q86SQ9: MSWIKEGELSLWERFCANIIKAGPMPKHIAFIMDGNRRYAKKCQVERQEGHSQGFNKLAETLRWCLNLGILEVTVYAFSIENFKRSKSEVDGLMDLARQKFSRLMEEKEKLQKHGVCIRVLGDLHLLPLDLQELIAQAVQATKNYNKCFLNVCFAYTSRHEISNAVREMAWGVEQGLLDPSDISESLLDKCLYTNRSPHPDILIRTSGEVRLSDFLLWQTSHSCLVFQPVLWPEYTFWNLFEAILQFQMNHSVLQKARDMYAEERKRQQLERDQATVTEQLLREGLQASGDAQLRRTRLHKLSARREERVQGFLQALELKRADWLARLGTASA
UniProt O43583: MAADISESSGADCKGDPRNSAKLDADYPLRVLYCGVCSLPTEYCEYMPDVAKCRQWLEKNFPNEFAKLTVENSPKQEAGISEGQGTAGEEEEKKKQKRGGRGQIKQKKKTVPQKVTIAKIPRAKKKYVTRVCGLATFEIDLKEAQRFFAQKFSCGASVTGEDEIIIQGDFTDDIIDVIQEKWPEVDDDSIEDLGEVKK

Compound: c1cn2cc(-c3ccc4cn[nH]c4c3)nc(Nc3ccc(N4CCOCC4)cc3)c2n1 [entospletinib]
Test: log2 fold change, soluble protein after heating vs DMSO (PISA); higher = thermal stabilisation; K562 cells, 10 uM, 30 min; active = over 0.2 and 3.5 SD of the protein, either way, in both replicates (recomputed)
Procedure, shortened: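 Soluble protein was quantified by TMTpro 16plex LC-MS/MS after channel sums were equalised. It was obtained as the supernatant after 21,000xg for 90 min from pooled aliquots of K562 cells (2×10^6 cells/mL, 10 μM compound, 30 min) heated for 3 min across 48°C-58°C and extracted in PBS with 0.5% NP-40 at 4°C. Thermal stability values are relative to control samples and come from duplicates. They are given as log2 fold changes.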

log2 fold change, inactive:
DLG2 isoform 2 (UniProt Q15700) 0.079
DEK (UniProt P35659) -0.035
DDX19A (UniProt Q9NUU7) -0.089
DIABLO (UniProt Q9NR28) -0.018
DHX32 (UniProt Q7L7V1) 0.032
DHDDS isoform 2 (UniProt Q86SQ9) 0.033
DENR (UniProt O43583) 0.023
